Record: PubChem BioAssay AID1259254 (NCATS, 2017)

Aim: 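Genome-wide screen for genes that prevent DNA re-replication in cancer cells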 (primary screen)
Cells: human HCT116 colorectal cancer cells
Knock-down reagent: single siRNA against human genes
Time to read-out: 3 days
Measured: 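Nuclei stained with Hoechst and imaged; cell-cycle phase assigned by DNA content; G2 share scaled per plate, non-targeting siRNA 0%, GMNN siRNA 100%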
Reading the numbers: G2 robust z-score and G2 cells, % of GMNN control: higher = more G2 cells, more excess DNA replication; raw share of cells in G2: higher = larger share of cells with G2 DNA content
Active means: 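Active siRNAs have a G2 robust z of 5 or more median absolute deviations over the median, which in these data means about 38% or higher of GMNN control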
The whole screen tested about 59,000 reagents; shown is an unselected part. In the full data, about 1,550 (2.6%) were called active. 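G2 share is only a proxy for re-replication; each gene was hit by three separate siRNAs, and active genes were retested.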 Raw values vary from plate to plate and are shown uncorrected. Reagents against one gene are numbered here. Reagent sequences are not shown. The record does not give: the amount of reagent.

| Gene | siRNA no. | G2 robust z-score | G2 cells, % of GMNN control | raw share of cells in G2 (%) | outcome |
| --- | --- | --- | --- | --- | --- |
| CCDC22 (GeneID 28952) | 1 | 0.991 | 9.94 | 6.39 | inactive |
| CCDC22 (GeneID 28952) | 2 | -0.508 | -0.606 | 3.62 | inactive |
| CCDC22 (GeneID 28952) | 3 | 0.78 | 8.45 | 7.75 | inactive |
| CMAS (GeneID 55907) | 1 | -0.573 | -1.06 | 5.96 | inactive |
| CMAS (GeneID 55907) | 2 | -0.453 | -0.216 | 4.36 | inactive |
| CMAS (GeneID 55907) | 3 | -0.762 | -2.4 | 3.33 | inactive |
| PTPN11 (GeneID 5781) | 1 | 6.36 | 47.7 | 20.3 | active |
| PTPN11 (GeneID 5781) | 2 | -0.977 | -3.91 | 3.13 | inactive |
| PTPN11 (GeneID 5781) | 3 | -0.742 | -2.25 | 2.82 | inactive |
| OBP2B (GeneID 29989) | 1 | 0.138 | 3.94 | 7.95 | inactive |
| OBP2B (GeneID 29989) | 2 | -0.477 | -0.387 | 4.06 | inactive |
| OBP2B (GeneID 29989) | 3 | 0.304 | 5.11 | 5.66 | inactive |
| PAK1IP1 (GeneID 55003) | 1 | 1.97 | 16.8 | 8.5 | inactive |
| PAK1IP1 (GeneID 55003) | 2 | 0.459 | 6.2 | 6.91 | inactive |
| PAK1IP1 (GeneID 55003) | 3 | -0.786 | -2.56 | 3.08 | inactive |
| PACRG (GeneID 135138) | 1 | 0.326 | 5.26 | 6.16 | inactive |
| PACRG (GeneID 135138) | 2 | 0.098 | 3.66 | 4.26 | inactive |
| PACRG (GeneID 135138) | 3 | -0.814 | -2.76 | 1.58 | inactive |
| MAPRE2 (GeneID 10982) | 1 | -0.129 | 2.06 | 5.79 | inactive |
| MAPRE2 (GeneID 10982) | 2 | 1.77 | 15.4 | 10.5 | inactive |
| MAPRE2 (GeneID 10982) | 3 | -0.188 | 1.64 | 3.79 | inactive |
| CELF2 (GeneID 10659) | 1 | -0.93 | -3.58 | 4.14 | inactive |
| CELF2 (GeneID 10659) | 2 | 0.0132 | 3.06 | 7.68 | inactive |
| CELF2 (GeneID 10659) | 3 | 1.56 | 13.9 | 8.34 | inactive |
| OR52A5 (GeneID 390054) | 1 | 1.66 | 14.6 | 8.79 | inactive |
| OR52A5 (GeneID 390054) | 2 | -0.688 | -1.87 | 2.59 | inactive |
| OR52A5 (GeneID 390054) | 3 | -1.11 | -4.83 | 2.56 | inactive |
| NPPA (GeneID 4878) | 1 | 1.04 | 10.3 | 6.71 | inactive |
| NPPA (GeneID 4878) | 2 | 2.48 | 20.4 | 12.9 | inactive |
| NPPA (GeneID 4878) | 3 | -0.491 | -0.489 | 4.55 | inactive |
| LOC400965 (retired record) (GeneID 400965) | 1 | -0.581 | -1.12 | 2.77 | inactive |
| LOC400965 (retired record) (GeneID 400965) | 2 | 0.299 | 5.07 | 6.08 | inactive |
| LOC400965 (retired record) (GeneID 400965) | 3 | -0.63 | -1.47 | 2.72 | inactive |
| PARVG (GeneID 64098) | 1 | -0.261 | 1.13 | 4.75 | inactive |
| PARVG (GeneID 64098) | 2 | 5.83 | 44 | 20.2 | active |
| PARVG (GeneID 64098) | 3 | -0.603 | -1.27 | 5.12 | inactive |
| STAMBPL1 (GeneID 57559) | 1 | -0.737 | -2.22 | 4.73 | inactive |
| STAMBPL1 (GeneID 57559) | 2 | 0.253 | 4.74 | 5.95 | inactive |
| STAMBPL1 (GeneID 57559) | 3 | -1.62 | -8.4 | 1.38 | inactive |
| RSL24D1 (GeneID 51187) | 1 | 0.43 | 5.99 | 6.14 | inactive |
| RSL24D1 (GeneID 51187) | 2 | 0.583 | 7.07 | 7.22 | inactive |
| RSL24D1 (GeneID 51187) | 3 | -0.831 | -2.88 | 2.34 | inactive |
| RBAK (GeneID 57786) | 1 | -0.12 | 2.12 | 3.54 | inactive |
| RBAK (GeneID 57786) | 2 | -1.31 | -6.22 | 3.1 | inactive |
| RBAK (GeneID 57786) | 3 | -0.69 | -1.89 | 3.04 | inactive |
| MITD1 (GeneID 129531) | 1 | -1.19 | -5.41 | 2.13 | inactive |
| MITD1 (GeneID 129531) | 2 | 2.06 | 17.5 | 8.65 | inactive |
| MITD1 (GeneID 129531) | 3 | -0.157 | 1.86 | 3.25 | inactive |
| DHX57 (GeneID 90957) | 1 | -0.704 | -1.99 | 4.75 | inactive |
| DHX57 (GeneID 90957) | 2 | 0.0635 | 3.41 | 6.43 | inactive |
| DHX57 (GeneID 90957) | 3 | -0.971 | -3.86 | 3.02 | inactive |
| DNAAF4 (GeneID 161582) | 1 | -0.387 | 0.244 | 3.69 | inactive |
| DNAAF4 (GeneID 161582) | 2 | 0.78 | 8.45 | 5.79 | inactive |
| DNAAF4 (GeneID 161582) | 3 | 0.235 | 4.62 | 4.22 | inactive |
| CYP7B1 (GeneID 9420) | 1 | 2.46 | 20.3 | 12.9 | inactive |
| CYP7B1 (GeneID 9420) | 2 | 0.766 | 8.36 | 8.14 | inactive |
| CYP7B1 (GeneID 9420) | 3 | -0.877 | -3.2 | 2.11 | inactive |
| KLHL28 (GeneID 54813) | 1 | 0.388 | 5.7 | 5.64 | inactive |
| KLHL28 (GeneID 54813) | 2 | -0.145 | 1.95 | 5.09 | inactive |
| KLHL28 (GeneID 54813) | 3 | 1.75 | 15.3 | 8.25 | inactive |
| OTUB2 (GeneID 78990) | 1 | -0.352 | 0.49 | 5.85 | inactive |
| OTUB2 (GeneID 78990) | 2 | 0.345 | 5.4 | 6.26 | inactive |
| OTUB2 (GeneID 78990) | 3 | -0.222 | 1.4 | 4.73 | inactive |
| NUP42 (GeneID 11097) | 1 | -1.58 | -8.14 | 2.33 | inactive |
| NUP42 (GeneID 11097) | 2 | 0.714 | 7.99 | 7.48 | inactive |
| NUP42 (GeneID 11097) | 3 | 2.44 | 20.2 | 12.2 | inactive |
| CCDC122 (GeneID 160857) | 1 | -0.184 | 1.67 | 4.2 | inactive |
| CCDC122 (GeneID 160857) | 2 | -0.154 | 1.88 | 3.59 | inactive |
| CCDC122 (GeneID 160857) | 3 | 0.84 | 8.88 | 5.57 | inactive |
| CDK18 (GeneID 5129) | 1 | -0.665 | -1.71 | 5.04 | inactive |
| CDK18 (GeneID 5129) | 2 | -1.14 | -5.02 | 3.72 | inactive |
| CDK18 (GeneID 5129) | 3 | -0.873 | -3.18 | 2.91 | inactive |
| TOM1L2 (GeneID 146691) | 1 | -0.871 | -3.16 | 2.77 | inactive |
| TOM1L2 (GeneID 146691) | 2 | 1.24 | 11.7 | 6.52 | inactive |
| TOM1L2 (GeneID 146691) | 3 | -1 | -4.07 | 1.65 | inactive |
| PEX16 (GeneID 9409) | 1 | 8.73 | 64.4 | 34.4 | active |
| PEX16 (GeneID 9409) | 2 | 0.342 | 5.38 | 6.19 | inactive |
| PEX16 (GeneID 9409) | 3 | -1.05 | -4.42 | 1.8 | inactive |
| YTHDF3 (GeneID 253943) | 1 | -0.0634 | 2.52 | 4.49 | inactive |
| YTHDF3 (GeneID 253943) | 2 | -0.141 | 1.98 | 3.81 | inactive |
| YTHDF3 (GeneID 253943) | 3 | -0.414 | 0.0536 | 3.21 | inactive |
| STEAP4 (GeneID 79689) | 1 | -0.196 | 1.59 | 5.1 | inactive |
| STEAP4 (GeneID 79689) | 2 | -0.305 | 0.824 | 4.66 | inactive |
| STEAP4 (GeneID 79689) | 3 | -0.0506 | 2.61 | 3.09 | inactive |
| CORT (GeneID 1325) | 1 | -0.307 | 0.808 | 5.68 | inactive |
| CORT (GeneID 1325) | 2 | -0.871 | -3.16 | 2.93 | inactive |
| CORT (GeneID 1325) | 3 | -1.06 | -4.5 | 1.76 | inactive |

Entries listed above marked active:
| Gene | siRNA no. | G2 robust z-score | G2 cells, % of GMNN control | raw share of cells in G2 (%) | outcome |
| --- | --- | --- | --- | --- | --- |
| PTPN11 (GeneID 5781) | 1 | 6.36 | 47.7 | 20.3 | active |
| PARVG (GeneID 64098) | 2 | 5.83 | 44 | 20.2 | active |
| PEX16 (GeneID 9409) | 1 | 8.73 | 64.4 | 34.4 | active |
